Test results as given in patent US9517222B2, “Method for the treatment of senile dementia of the Alzheimer's type” (Phenomenome Discoveries Inc., priority 2007, dated 2016).

Assays:
[1] = Serum ethanolamine phospholipid levels in human cohorts (dementia severity, post-mortem pathology, age) by flow-injection MS/MS
[2] = Serum ethanolamine phospholipid ratios to PtdEt 16:0/18:0 (M01) in human cohorts
[3] = serum, females, post mortem SDAT
[4] = serum, females, post mortem control

For `CCCCCC=CCC=CCC=CCC=CCCCCCC(=O)OC(COC=CCCCCCCCCCCCCCC)COP(=O)(O)OCCN` (centres unmarked) [Metabolite M18, Plasmenyl 16:0/22:4], the “Ratio of serum levels” value ([1]; AD, All to CN, Male) was 0.708, the “Ratio of serum levels” value ([1]; ADAS 5-19 to CN, Male) was 0.758 and the “Ratio of serum levels” value ([1]; ADAS 20-39 to 5-19, Male) was 0.909. For the same compound, the “Ratio of serum levels” value ([1]; ADAS 20-39 to CN, Male) was 0.689, the “Ratio of serum levels” value ([1]; ADAS 40-70 to 5-19, Male) was 0.809 and the “Ratio of serum levels” value ([1]; ADAS 40-70 to 20-39, Male) was 0.890. The “Ratio of serum levels” value ([1]; ADAS 40-70 to CN, Male) was 0.613, the “Serum level, Mean” value ([1]; Cognitive Normal, Female) was 0.024 and the “Average serum level, Mean” value ([1]; Cognitive Normal, Male) was 0.026. The “Serum level, Mean” value ([1]; Post Mortem Ctl, Male) was 0.010, the “Serum level, Mean” value ([1]; Post Mortem SDAT Male) was 0.005 and the “Ratio of serum levels” value ([1]; Post mortem SDAT vs Control, Male) was 0.521. For the same compound, the “Serum level, Mean” value ([1]; SDAT, ADAS 5-19, Female) was 0.019, the “Average serum level, Mean” value ([1]; SDAT, ADAS 5-19, Male) was 0.020 and the “Serum level, Mean” value ([1]; SDAT, ADAS 20-39, Female) was 0.019. For the same compound, the “Average serum level, Mean” value ([1]; SDAT, ADAS 20-39, Male) was 0.018, the “Serum level, Mean” value ([1]; SDAT, ADAS 40-70, Female) was 0.016 and the “Average serum level, Mean” value ([1]; SDAT, ADAS 40-70, Male) was 0.016. The “Serum level, Mean” value ([1]; SDAT_all, Female) was 0.018, the “Average serum level, Mean” value ([1]; SDAT_all, Male) was 0.019 and the “Ratio, ADAS 5-19 to CN, Female” value ([1]; serum level ratio, females, ADAS 5-19 vs CN) was 0.804. The “Ratio, ADAS 20-39 to 5-19, Female” value ([1]; serum level ratio, females, ADAS 20-39 vs ADAS 5-19) was 0.985, the “Ratio, ADAS 20-39 to CN, Female” value ([1]; serum level ratio, females, ADAS 20-39 vs CN) was 0.792 and the “Ratio, ADAS 40-70 to 5-19, Female” value ([1]; serum level ratio, females, ADAS 40-70 vs ADAS 5-19) was 0.837. The “Ratio, ADAS 40-70 to 20-39, Female” value ([1]; serum level ratio, females, ADAS 40-70 vs ADAS 20-39) was 0.850, the “Ratio, ADAS 40-70 to CN, Female” value ([1]; serum level ratio, females, ADAS 40-70 vs CN) was 0.673 and the “Ratio, 50-59 vs. 40-49, Female” value ([1]; serum level ratio, females, age 50-59 vs 40-49) was 0.778. For the same compound, the “Ratio, 60-69 vs. 40-49, Female” value ([1]; serum level ratio, females, age 60-69 vs 40-49) was 0.594, the “Ratio, 70+ vs. 40-49, Female” value ([1]; serum level ratio, females, age 70+ vs 40-49) was 0.733 and the “Ratio, AD, All to CN, Female” value ([1]; serum level ratio, females, all AD vs cognitively normal) was 0.754. For the same compound, the “Ratio, Autopsy AD vs. Control, Female” value ([1]; serum level ratio, females, autopsy AD vs control) was 0.579, the “Ratio, 50-59 vs. 40-49, Male” value ([1]; serum level ratio, males, age 50-59 vs 40-49) was 1.055 and the “Ratio, 60-69 vs. 40-49, Male” value ([1]; serum level ratio, males, age 60-69 vs 40-49) was 1.032. The “Ratio, 70+ vs. 40-49, Male” value ([1]; serum level ratio, males, age 70+ vs 40-49) was 0.904, the “Mean serum level, Age Ctl, 30-39, Female” value ([1]; serum, females, age 30-39) was 0.028 and the “Mean serum level, Age Ctl, 40-49, Female” value ([1]; serum, females, age 40-49) was 0.032. For the same compound, the “Mean serum level, Age Ctl, 50-59, Female” value ([1]; serum, females, age 50-59) was 0.025, the “Mean serum level, Age Ctl, 60-69, Female” value ([1]; serum, females, age 60-69) was 0.019 and the “Mean serum level, Age Ctl, 70+, Female” value ([1]; serum, females, age 70+) was 0.023. For the same compound, the “Mean serum level, Post Mortem SDAT, Female” value [1, 3] was 0.008, the “Mean serum level, Post Mortem Ctl, Female” value [1, 4] was 0.014 and the “Mean serum level, Age Ctl, 30-39, Male” value ([1]; serum, males, age 30-39) was 0.032. The “Mean serum level, Age Ctl, 40-49, Male” value ([1]; serum, males, age 40-49) was 0.025, the “Mean serum level, Age Ctl, 50-59, Male” value ([1]; serum, males, age 50-59) was 0.027 and the “Mean serum level, Age Ctl, 60-69, Male” value ([1]; serum, males, age 60-69) was 0.026. The “Mean serum level, Age Ctl, 70+, Male” value ([1]; serum, males, age 70+) was 0.023, the “Ratio of ethanolamine phospholipid ratios to M01 between cohorts” value (from here on “Ratio … to M01 between cohorts”) ([2]; AD, All to CN, Male) was 0.672 and the “Ratio … to M01 between cohorts” value ([2]; ADAS 5-19 to CN, Male) was 0.714. The “Ratio … to M01 between cohorts” value ([2]; ADAS 20-39 to CN, Male) was 0.666, the “Ratio … to M01 between cohorts” value ([2]; ADAS 40-70 to CN, Male) was 0.603 and the “Average serum ethanolamine phospholipid ratio to M01, Mean” value ([2]; Cognitive Normal, Male, serum) was 0.232. For the same compound, the “Average serum ethanolamine phospholipid ratio to M01, Mean” value ([2]; SDAT, ADAS 5-19, Male, serum) was 0.166, the “Average serum ethanolamine phospholipid ratio to M01, Mean” value ([2]; SDAT, ADAS 20-39, Male, serum) was 0.155 and the “Average serum ethanolamine phospholipid ratio to M01, Mean” value ([2]; SDAT, ADAS 40-70, Male, serum) was 0.140. For the same compound, the “Average serum ethanolamine phospholipid ratio to M01, Mean” value ([2]; SDAT_all, Male, serum) was 0.156, the “Ethanolamine Phospholipid Ratio to M01, Mean, Age Ctl, 30-39, Female” value ([2]; human serum, females aged 30-39) was 0.282 and the “Ethanolamine Phospholipid Ratio to M01, Mean, Age Ctl, 40-49, Female” value ([2]; human serum, females aged 40-49) was 0.289. For the same compound, the “Ethanolamine Phospholipid Ratio to M01, Mean, Age Ctl, 50-59, Female” value ([2]; human serum, females aged 50-59) was 0.245, the “Ratio of Ethanolamine Phospholipid Ratio to M01, 50-59 vs. 40-49, Female” value ([2]; human serum, females aged 50-59 vs. females aged 40-49) was 0.847 and the “Ethanolamine Phospholipid Ratio to M01, Mean, Age Ctl, 60-69, Female” value ([2]; human serum, females aged 60-69) was 0.160. The “Ratio of Ethanolamine Phospholipid Ratio to M01, 60-69 vs. 40-49, Female” value ([2]; human serum, females aged 60-69 vs. females aged 40-49) was 0.552, the “Ethanolamine Phospholipid Ratio to M01, Mean, Age Ctl, 70+_Female” value ([2]; human serum, females aged 70+) was 0.191 and the “Ratio of Ethanolamine Phospholipid Ratio to M01, 70+ vs. 40-49, Female” value ([2]; human serum, females aged 70+ vs. females aged 40-49) was 0.660. The “Ratio of Ethanolamine Phospholipid Ratio to M01, 50-59 vs. 40-49, Male” value ([2]; human serum, males aged 50-59 vs. males aged 40-49) was 1.067, the “Ratio of Ethanolamine Phospholipid Ratio to M01, 60-69 vs. 40-49, Male” value ([2]; human serum, males aged 60-69 vs. males aged 40-49) was 0.851 and the “Ratio of Ethanolamine Phospholipid Ratio to M01, 70+ vs. 40-49, Male” value ([2]; human serum, males aged 70+ vs. males aged 40-49) was 0.761. The “Ratio of ethanolamine phospholipid ratio to M01, ADAS 5-19 to CN, Female” value ([2]; serum, females, ADAS 5-19 vs cognitive normal) was 0.879, the “Ratio of ethanolamine phospholipid ratio to M01, ADAS 20-39 to 5-19, Female” value ([2]; serum, females, ADAS 20-39 vs ADAS 5-19) was 0.960 and the “Ratio of ethanolamine phospholipid ratio to M01, ADAS 20-39 to CN, Female” value ([2]; serum, females, ADAS 20-39 vs cognitive normal) was 0.844. For the same compound, the “Ratio of ethanolamine phospholipid ratio to M01, ADAS 40-70 to 5-19, Female” value ([2]; serum, females, ADAS 40-70 vs ADAS 5-19) was 0.777, the “Ratio of ethanolamine phospholipid ratio to M01, ADAS 40-70 to 20-39, Female” value ([2]; serum, females, ADAS 40-70 vs ADAS 20-39) was 0.809 and the “Ratio of ethanolamine phospholipid ratio to M01, ADAS 40-70 to CN, Female” value ([2]; serum, females, ADAS 40-70 vs cognitive normal) was 0.683. The “Ethanolamine phospholipid ratio to M01, Mean, SDAT, ADAS 5-19, Female” value ([2]; serum, females, SDAT ADAS 5-19) was 0.178, the “Ethanolamine phospholipid ratio to M01, Mean, SDAT, ADAS 20-39, Female” value ([2]; serum, females, SDAT ADAS 20-39) was 0.170 and the “Ethanolamine phospholipid ratio to M01, Mean, SDAT, ADAS 40-70, Female” value ([2]; serum, females, SDAT ADAS 40-70) was 0.138. For the same compound, the “Ratio of ethanolamine phospholipid ratio to M01, AD, All to CN, Female” value ([2]; serum, females, all AD vs cognitive normal) was 0.798, the “Ethanolamine phospholipid ratio to M01, Mean, SDAT_all Female” value ([2]; serum, females, all SDAT) was 0.161 and the “Ratio of ethanolamine phospholipid ratio to M01, Autopsy AD vs. Control, Female” value ([2]; serum, females, autopsy AD vs post mortem control) was 0.854. For the same compound, the “Ethanolamine phospholipid ratio to M01, Mean, Cognitive Normal, Female” value ([2]; serum, females, cognitive normal) was 0.202, the “Ethanolamine phospholipid ratio to M01, Mean, Post Mortem SDAT Female” value [2, 3] was 0.069 and the “Ethanolamine phospholipid ratio to M01, Mean, Post Mortem Ctl, Female” value [2, 4] was 0.081. The “Ratio of ethanolamine phospholipid ratio to M01, ADAS 20-39 to 5-19, Male” value ([2]; serum, males, SDAT ADAS 20-39 vs ADAS 5-19) was 0.932, the “Ratio of ethanolamine phospholipid ratio to M01, ADAS 40-70 to 5-19, Male” value ([2]; serum, males, SDAT ADAS 40-70 vs ADAS 5-19) was 0.844 and the “Ratio of ethanolamine phospholipid ratio to M01, ADAS 40-70 to 20-39, Male” value ([2]; serum, males, SDAT ADAS 40-70 vs ADAS 20-39) was 0.905. The “Ethanolamine phospholipid ratio to M01, Mean, Age Ctl, 30-39, Male” value ([2]; serum, males, age control 30-39) was 0.258, the “Ethanolamine phospholipid ratio to M01, Mean, Age Ctl, 40-49, Male” value ([2]; serum, males, age control 40-49) was 0.229 and the “Ethanolamine phospholipid ratio to M01, Mean, Age Ctl, 50-59, Male” value ([2]; serum, males, age control 50-59) was 0.244. The “Ethanolamine phospholipid ratio to M01, Mean, Age Ctl, 60-69, Male” value ([2]; serum, males, age control 60-69) was 0.195, the “Ethanolamine phospholipid ratio to M01, Mean, Age Ctl, 70+_Male” value ([2]; serum, males, age control 70+) was 0.174 and the “Ethanolamine phospholipid ratio to M01, Mean, Post Mortem SDAT Male” value ([2]; serum, males, post mortem SDAT) was 0.056. For the same compound, the “Ratio of ethanolamine phospholipid ratio to M01, SDAT vs Control (post mortem, males)” value ([2]; serum, males, post mortem SDAT vs post mortem control) was 0.656 and the “Ethanolamine phospholipid ratio to M01, Mean, Post Mortem Ctl, Male” value ([2]; serum, males, post mortem control) was 0.085.

Where no unit stands, none is given here, and values compare only within one read-out.
